PubChem BioAssay AID1508597 | Cure First – 2020
Assay: 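Survival screen with siRNA in ovarian cancer cells derived from patients, with or without rucaparib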 (primary screen). Cells: human ovarian carcinoma lines grown from tumours: OCI-P5x (papillary serous) and OCI-C5x (clear cell). Reagent: siRNA pool against human genes, 1.25 pmol siRNA per well. Timing: 72 h or 96 h, depending on the cell culture. Treatment: rucaparib 20 µM (about IC30) or vehicle, present until read-out. Rucaparib or vehicle: Vehicle. Cell line: OCI-P5x (serous). Read-out: 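ATP luminescence measured at 72 or 96 h according to the culture, then normalised and expressed as percent viability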. Reading the numbers: viability, normalised: higher = more viable cells remaining. Hit rule: 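Active when normalised viability falls below 80 percent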. Meaning of the calls: active = viability under 80%; inactive = viability 80% or more.
This is an unselected part of the about 2,100 reagents, in one setting of the screen. 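Calls flag viability under 80% in either arm, not effects specific to rucaparib; the reference for percent is not stated.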 Entries without a mark were called inactive. Some reagents were tested in more than one well and are listed for each. Not stated in the record: the 100% reference.

gene knocked down	technical replicate	viability, normalised (%)
PRPS1L1 (phosphoribosyl pyrophosphate synthetase 1 like 1)	1	75.6 (active)
PRPS1L1 (phosphoribosyl pyrophosphate synthetase 1 like 1)	2	86.7
PRPS1L1 (phosphoribosyl pyrophosphate synthetase 1 like 1)	3	79.4 (active)
STK31 (serine/threonine kinase 31)	1	85.8
STK31 (serine/threonine kinase 31)	1	48.2 (active)
STK31 (serine/threonine kinase 31)	2	83.6
STK31 (serine/threonine kinase 31)	2	60.1 (active)
STK31 (serine/threonine kinase 31)	3	80.7
STK31 (serine/threonine kinase 31)	3	75.1 (active)
MARK2 (microtubule affinity regulating kinase 2)	1	68 (active)
MARK2 (microtubule affinity regulating kinase 2)	2	63.4 (active)
MARK2 (microtubule affinity regulating kinase 2)	3	80.7
H4C2 (H4 clustered histone 2)	1	88.1
H4C2 (H4 clustered histone 2)	2	57.2 (active)
H4C2 (H4 clustered histone 2)	3	116
NHEJ1 (non-homologous end joining factor 1)	1	68.2 (active)
NHEJ1 (non-homologous end joining factor 1)	1	39.2 (active)
NHEJ1 (non-homologous end joining factor 1)	2	57 (active)
NHEJ1 (non-homologous end joining factor 1)	2	41.1 (active)
NHEJ1 (non-homologous end joining factor 1)	3	90.8
NHEJ1 (non-homologous end joining factor 1)	3	55.3 (active)
PI4KA (phosphatidylinositol 4-kinase alpha)	1	107
PI4KA (phosphatidylinositol 4-kinase alpha)	2	122
PI4KA (phosphatidylinositol 4-kinase alpha)	3	113
ZDHHC3 (zDHHC palmitoyltransferase 3)	1	98.6
ZDHHC3 (zDHHC palmitoyltransferase 3)	2	54.1 (active)
ZDHHC3 (zDHHC palmitoyltransferase 3)	3	61.4 (active)
NBN (nibrin)	1	47.1 (active)
NBN (nibrin)	1	66.2 (active)
NBN (nibrin)	2	67.5 (active)
NBN (nibrin)	2	39.4 (active)
NBN (nibrin)	3	45.1 (active)
NBN (nibrin)	3	79.5 (active)
CHD1 (chromodomain helicase DNA binding protein 1)	1	86.5
CHD1 (chromodomain helicase DNA binding protein 1)	2	84.9
CHD1 (chromodomain helicase DNA binding protein 1)	3	85.9
SLC6A3	1	64.4 (active)
SLC6A3	2	47.2 (active)
SLC6A3	3	117
TFAP2A (transcription factor AP-2 alpha)	1	77.4 (active)
TFAP2A (transcription factor AP-2 alpha)	2	73.9 (active)
TFAP2A (transcription factor AP-2 alpha)	3	82.8
PALB2 (partner and localizer of BRCA2)	1	125
PALB2 (partner and localizer of BRCA2)	1	48.6 (active)
PALB2 (partner and localizer of BRCA2)	2	131
PALB2 (partner and localizer of BRCA2)	2	49 (active)
PALB2 (partner and localizer of BRCA2)	3	112
PALB2 (partner and localizer of BRCA2)	3	56.9 (active)
KIF11 (kinesin family member 11)	1	31.6 (active)
KIF11 (kinesin family member 11)	2	42.1 (active)
KIF11 (kinesin family member 11)	3	33.3 (active)
CEBPG (CCAAT enhancer binding protein gamma)	1	74.1 (active)
CEBPG (CCAAT enhancer binding protein gamma)	2	73.6 (active)
CEBPG (CCAAT enhancer binding protein gamma)	3	77.3 (active)
MED18 (mediator complex subunit 18)	1	64.4 (active)
MED18 (mediator complex subunit 18)	2	64.7 (active)
MED18 (mediator complex subunit 18)	3	68.8 (active)

Not a retest: an excerpt of the list.
gene knocked down	technical replicate	viability, normalised (%)
PI4KA (phosphatidylinositol 4-kinase alpha)	1	107
PI4KA (phosphatidylinositol 4-kinase alpha)	2	122
PI4KA (phosphatidylinositol 4-kinase alpha)	3	113
ZDHHC3 (zDHHC palmitoyltransferase 3)	1	98.6
ZDHHC3 (zDHHC palmitoyltransferase 3)	2	54.1 (active)
ZDHHC3 (zDHHC palmitoyltransferase 3)	3	61.4 (active)
NBN (nibrin)	1	47.1 (active)
